No constants are given. Whether binding was seen depends on the method and setting. Binding seen in cells or lysates may run through a third protein. Some entries that bind do so weakly or less than the wild type. For part of these data: Where a sequence is shown, tags or fusion partners need not be part of it.
Experiments:
[1] = molecular target: T1, Clb2-3XHA (S. cerevisiae (budding yeast)) (UniProt P24869); experiment: co-IP
T1 sequence: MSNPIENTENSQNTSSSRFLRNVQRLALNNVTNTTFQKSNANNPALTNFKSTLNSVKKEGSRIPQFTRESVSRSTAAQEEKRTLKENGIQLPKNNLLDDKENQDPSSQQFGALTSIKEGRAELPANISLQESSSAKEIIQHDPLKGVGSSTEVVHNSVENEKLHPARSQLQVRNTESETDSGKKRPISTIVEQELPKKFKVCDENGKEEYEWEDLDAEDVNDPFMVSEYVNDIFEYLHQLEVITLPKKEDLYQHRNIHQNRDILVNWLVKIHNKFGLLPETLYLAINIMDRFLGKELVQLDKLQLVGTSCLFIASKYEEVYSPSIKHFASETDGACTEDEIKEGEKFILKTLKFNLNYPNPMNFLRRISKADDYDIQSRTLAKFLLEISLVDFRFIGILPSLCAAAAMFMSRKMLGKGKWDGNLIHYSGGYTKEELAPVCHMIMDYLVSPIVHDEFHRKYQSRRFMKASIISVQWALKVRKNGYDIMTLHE

The chains behind the UniProt entries cited, without tags or fusion partners.
UniProt P00546: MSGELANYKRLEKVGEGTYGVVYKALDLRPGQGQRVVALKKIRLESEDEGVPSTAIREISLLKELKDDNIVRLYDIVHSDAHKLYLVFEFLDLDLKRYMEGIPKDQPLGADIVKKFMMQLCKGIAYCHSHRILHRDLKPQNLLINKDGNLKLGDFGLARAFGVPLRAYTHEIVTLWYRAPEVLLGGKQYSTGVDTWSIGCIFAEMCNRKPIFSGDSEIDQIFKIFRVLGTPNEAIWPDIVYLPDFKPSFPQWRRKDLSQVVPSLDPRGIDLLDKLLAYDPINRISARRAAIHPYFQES

[2] = molecular target: T2, GST-Clb2 (S. cerevisiae (budding yeast)) (UniProt P24869); experiment: pull-down
T2 sequence: T1 sequence

[3] = molecular target: T3, GST-Cln2 (S. cerevisiae (budding yeast)) (UniProt P20438); experiment: pull-down
T3 sequence: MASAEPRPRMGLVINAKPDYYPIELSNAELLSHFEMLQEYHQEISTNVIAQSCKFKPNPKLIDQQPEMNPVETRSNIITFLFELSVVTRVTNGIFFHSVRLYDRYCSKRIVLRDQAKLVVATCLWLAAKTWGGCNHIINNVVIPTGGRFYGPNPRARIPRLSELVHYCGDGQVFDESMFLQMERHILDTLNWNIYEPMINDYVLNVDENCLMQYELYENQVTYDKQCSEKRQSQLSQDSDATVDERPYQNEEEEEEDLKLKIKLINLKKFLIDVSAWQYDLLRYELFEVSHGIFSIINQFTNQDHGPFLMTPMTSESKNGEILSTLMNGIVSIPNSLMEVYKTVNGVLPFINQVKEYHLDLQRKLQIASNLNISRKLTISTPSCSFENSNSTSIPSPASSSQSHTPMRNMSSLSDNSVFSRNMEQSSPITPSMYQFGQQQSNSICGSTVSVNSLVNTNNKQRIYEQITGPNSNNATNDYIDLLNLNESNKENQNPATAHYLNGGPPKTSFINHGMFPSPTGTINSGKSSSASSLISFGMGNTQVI

- binding [1]: binds
- binding [2]: binds
- binding [3]: binds
Substance: Cdk1 (from UniProt P00546 1-298) (enzyme)

Reference: article doi:10.1101/2022.08.12.503734
